Source: US20250281630A1 (TORAY INDUSTRIES, published 2025)
Residue numbers refer to the chain shown, from its start. These are yes or no findings as the source states them, for the method shown. Some results given as binding are weak or reduced against the parent protein; the word gives no strength.

T1: human CAPRIN-1 on the cell membrane surface of human cancer cells (human) (UniProt Q14444)
T1 sequence (looked up): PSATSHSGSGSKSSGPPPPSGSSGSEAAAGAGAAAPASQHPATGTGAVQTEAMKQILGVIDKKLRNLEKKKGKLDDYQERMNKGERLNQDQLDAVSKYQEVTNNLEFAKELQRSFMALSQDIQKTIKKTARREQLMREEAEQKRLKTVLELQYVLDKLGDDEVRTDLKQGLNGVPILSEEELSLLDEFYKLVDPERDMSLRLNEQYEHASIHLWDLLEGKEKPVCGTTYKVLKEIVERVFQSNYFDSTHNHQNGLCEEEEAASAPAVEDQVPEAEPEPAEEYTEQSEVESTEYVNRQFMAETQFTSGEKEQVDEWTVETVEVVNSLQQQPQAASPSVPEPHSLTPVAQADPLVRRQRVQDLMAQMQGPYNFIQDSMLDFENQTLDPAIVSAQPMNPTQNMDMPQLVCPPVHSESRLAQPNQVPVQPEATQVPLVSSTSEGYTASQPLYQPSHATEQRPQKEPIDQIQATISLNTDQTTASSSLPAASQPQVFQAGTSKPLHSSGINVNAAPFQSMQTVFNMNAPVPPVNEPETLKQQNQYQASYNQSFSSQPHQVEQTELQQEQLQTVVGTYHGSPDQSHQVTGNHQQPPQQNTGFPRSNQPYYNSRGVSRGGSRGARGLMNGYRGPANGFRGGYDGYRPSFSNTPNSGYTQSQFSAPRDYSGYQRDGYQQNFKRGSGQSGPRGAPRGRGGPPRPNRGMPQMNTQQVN

T2: mouse CAPRIN-1 on mouse cancer cells (mouse, UniProt Q60865 2-707)
T2 construct: whole, on cells
T2 sequence (looked up): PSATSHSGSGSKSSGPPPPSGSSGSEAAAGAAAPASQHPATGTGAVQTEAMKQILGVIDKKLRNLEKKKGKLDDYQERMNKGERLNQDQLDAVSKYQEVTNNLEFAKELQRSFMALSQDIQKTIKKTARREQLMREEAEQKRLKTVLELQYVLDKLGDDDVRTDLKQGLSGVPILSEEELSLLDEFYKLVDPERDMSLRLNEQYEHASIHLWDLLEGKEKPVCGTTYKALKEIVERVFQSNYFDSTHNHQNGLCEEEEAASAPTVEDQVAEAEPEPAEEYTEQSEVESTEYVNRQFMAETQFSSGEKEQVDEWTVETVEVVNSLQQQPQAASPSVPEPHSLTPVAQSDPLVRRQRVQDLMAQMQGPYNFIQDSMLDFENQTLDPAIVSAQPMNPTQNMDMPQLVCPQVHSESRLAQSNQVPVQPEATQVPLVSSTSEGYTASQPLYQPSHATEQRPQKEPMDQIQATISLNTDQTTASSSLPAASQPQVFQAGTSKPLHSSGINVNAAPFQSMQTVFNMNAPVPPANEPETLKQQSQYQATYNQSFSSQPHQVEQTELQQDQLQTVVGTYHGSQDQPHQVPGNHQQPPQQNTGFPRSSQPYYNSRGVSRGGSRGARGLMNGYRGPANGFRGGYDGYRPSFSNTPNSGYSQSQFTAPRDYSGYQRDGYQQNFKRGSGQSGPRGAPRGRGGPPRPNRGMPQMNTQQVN

B1: Conjugate 133 (antibody, V domains shown)
VH: DAELVKPGASVKISCKASGYTFTDHSIHWVQQKPEQGLEWIGYISPGNGNIKYNEKFKGKATLTADKSSSTAYMQLNSLTSEDSAVYFCKRSLGRGGPYYFDYWGQGTTVTVSS
VL: DIVLTQAAPSLPVTPGESVSISCRSSKSLLHSNGNTYLYWFLQRPGQSPQLLIYRMSNLASGVPDRFSGSGSGTAFTLRISRVEAEDVGVYYCMQHREYPVTFGSGPN
B2: Conjugate 149 (antibody, V domains shown)
VH: GPDLVKPGASVKISCKASGYSFTAYYMHWVKQSHGKSLEWIGRVNPNNGGTTYNQKFKGKAILTVDKSSSTAYMELRSLTFEDSAVYYCARRIYYGYFDYWGQGTTVTVSS
VL: AFFAVSLGQRATISCKASQSVDYDGDSYMNWYQQKPGQPPKLLIYVASNLESGVPARFSGSGSGTDFTLNIHPVEEEDAATYYCQQSNEDPYTFGGGTKLEIKQ
B3: Conjugate 155 (antibody, V domains shown)
VH: EVQLVESGGGLVQPGGSLRLSCAASGFSLSSHSLGWVRQAPGKGLEWIGDIRSGGSAYYANWAKGRFTISRDNSKNTLYLQMNSLRAEDTAVYYCTRTNGPSDLTNRLDLWGQGTLVTVSS
VL: QVLTQSPSSLSASVGDRVTINCQASQSLYNNENLAWFQQKPGKVPKRLIYGASTLASGVSSRFSGSGSGTEFTLTISSLQCEDFAIYYCLGEFSCGSADCFAFGGGTKVEIK
B4: Conjugate 156 (antibody, V domains shown)
VH: B3 VH with Y94F
VL: B3 VL
B5: Conjugate 157 (antibody, V domains shown)
VH: B3 VH
VL: EQVLTQSPSSLSASVGDRVTINCQASQSLYNNENLAWFQQKPGKVPKRLIYGASTLASGVSSRFSGSGSGTEFTLTISNLQPEDFAIYYCLGEFSCGSADCFAFGGGTKVEIK
B6: Conjugate 158 (antibody, V domains shown)
VH: B3 VH with Y94F
VL: B5 VL with Q2I, I87T
B7: Conjugate 159 (antibody, V domains shown)
VH: B3 VH
VL: B5 VL with Q2I, I87T
B8: Conjugate 160 (antibody, V domains shown)
VH: B3 VH with Y94F
VL: B5 VL

What follows are binders tested against T1, human CAPRIN-1 on the cell membrane surface of human cancer cells (human) (assay: flow cytometry, BT474 cells).

Binder	binding
B1	binds
B2	binds
B3	binds
B4	binds
B5	binds
B6	binds
B7	binds
B8	binds

What follows are binders tested against T1, human CAPRIN-1 on the cell membrane surface of human cancer cells (human) (assay: HT29 cells, as shown in Example 5).

Binder	binding
B1	binds
B2	binds
B3	binds
B4	binds
B5	binds
B6	binds
B7	binds
B8	binds

What follows are binders tested against T1, human CAPRIN-1 on the cell membrane surface of human cancer cells (human) (assay: flow cytometry, human cancer cell lines).

Binder	binding
B1	binds
B2	binds
B3	binds
B4	binds
B5	binds
B6	binds
B7	binds
B8	binds

What follows are binders tested against T2, mouse CAPRIN-1 on mouse cancer cells (assay: flow cytometry, Renca and 4T1 cells).

Binder	binding
B1	binds
B2	binds
B3	binds
B4	binds
B5	binds
B6	binds
B7	binds
B8	binds
